# Experimental data published in patent publication US12419873B2, “Use of JAK inhibitors in preparation of drugs for treating JAK kinase-related diseases” (ZHUHAI UNITED LABORATORIES CO., LTD., priority 2020, dated 2025).
# Assay: Pharmacokinetic (PK) test in mice
# Assay type: in vivo, mice (C57BL/6)
# Conditions: mouse, plasma; male C57BL/6 mice; tail vein 2 mg/kg, oral 15 mg/kg
smiles,measurement,value
N#CC1(C(=O)N2CC3(CCC(c4cccc5nc(NC(=O)C6CC6)nn45)CC3)C2)CC1 [Compound 1-11],half-life,2.99 h
